From patent US10633383B2, “Compounds for the treatment, alleviation or prevention of disorders associated with Tau aggregates” (AC Immune SA, priority 2018, dated 2020)
The match of structure and compound is tentative.

Amino acid sequences for entries named in this document (tags omitted). Residues count along the entry.
UniProt P10636, 1-441 isoform 8: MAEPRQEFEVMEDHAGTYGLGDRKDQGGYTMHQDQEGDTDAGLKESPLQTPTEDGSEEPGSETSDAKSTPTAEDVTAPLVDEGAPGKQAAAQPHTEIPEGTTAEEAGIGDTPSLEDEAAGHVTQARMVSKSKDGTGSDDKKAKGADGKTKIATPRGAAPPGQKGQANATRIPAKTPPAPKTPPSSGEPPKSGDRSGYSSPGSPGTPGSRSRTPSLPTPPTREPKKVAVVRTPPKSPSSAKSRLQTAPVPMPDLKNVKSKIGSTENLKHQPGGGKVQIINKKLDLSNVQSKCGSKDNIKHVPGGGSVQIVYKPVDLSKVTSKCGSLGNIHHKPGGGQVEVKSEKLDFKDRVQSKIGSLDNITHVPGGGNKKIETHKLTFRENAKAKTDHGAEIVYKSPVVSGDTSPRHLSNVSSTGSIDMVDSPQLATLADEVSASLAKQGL
UniProt P10636, 561-689 limits assumed: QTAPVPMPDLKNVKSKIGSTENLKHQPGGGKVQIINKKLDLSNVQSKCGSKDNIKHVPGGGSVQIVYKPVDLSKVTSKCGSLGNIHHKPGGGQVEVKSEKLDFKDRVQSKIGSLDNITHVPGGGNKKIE

Tests used:
[1] = target: Tau K18 fragment (amino acids 244 to 372 of human Tau441) aggregates (Homo sapiens, UniProt P10636); assay: Tau K18 disaggregation assay by ThT; type: biochemical; settings: read-out: Tau K18 disaggregation EC50; 2 μM K18 aggregates, 30 minutes at RT, ThT fluorescence
[2] = system: human neuroblastoma cell line overexpressing the full-length form of human Tau carrying the P301L mutation; assay: Reduction of intracellular Tau aggregation (AlphaLISA); settings: compound at 5 μM, 24 h; aggregated Tau normalized to total Tau, relative to DMSO-treated cells
Procedure: Reduction of Intracellular Tau Aggregation
A human neuroblastoma cell line overexpressing the full-length form of human Tau carrying the P301L mutation was cultured in complete medium [DMEM-F12 4.5 g/L Glutamax (Invitrogen), 15% FBS (Biochrom), 1% Peni/Strep (Invitrogen) supplemented with 2.5 μg/ml of G418 (Sigma-Aldrich) selection antibiotic]. The day before the experiment 5×10^5 cells/well were plated in a 6 well plate in 3 mL of complete medium. The next day, cells were incubated with DMSO or a compound of the present invention at a 5 μM for additional 24 h at 37° C. […] Phosphorylated, aggregated, and total Tau were quantified by AlphaLisa using the following antibody pairs: • HT7-Acceptor beads+biotin (BT)-Tau13-Donor beads: Total Tau • HT7-Acceptor beads+biotin (BT)-HT7-Donor beads: Aggregated human Tau […]
After incubation of this mixture at room temperature for 1 h, 25 μL of Streptavidin Donor beads (Perkin Elmer) at 25 μg/mL were added in the dark. Plates were analyzed after 30 min incubation using the EnSpire Alpha instrument and EnSpire Workstation version 3.00. Data for aggregated Tau were normalized to total Tau and then expressed as percentage of the DMSO-treated cells.

[3] = target: recombinant full-length (fl)Tau (human Tau 2N4R) aggregates (Homo sapiens, UniProt P10636); assay: Full-length Tau (flTau) disaggregation assay by Thioflavin T (ThT); settings: read-out: flTau disaggregation EC50; 2 μM flTau aggregates, 30 minutes at RT, ThT fluorescence
Procedure: Full-Length Tau (flTau) Disaggregation Assay by Thioflavin T (ThT)
The longest isoform of human Tau (2N4R; 441 amino acids) was expressed in bacteria and purified. For the Tau disaggregation assay by ThT, 35 μM of recombinant full-length (fl)Tau in PBS were aggregated for 24 hours at 37° C. in presence of 50 μM of heparin (Sigma-Aldrich) and 10 mM of DTT (Sigma-Aldrich) under shaking at 750 RPM. Compounds were dissolved in anhydrous dimethyl sulfoxide (DMSO, Sigma-Aldrich) to reach a concentration of 10 mM. flTau aggregates and serial dilutions of compounds were mixed together in PBS (volume 50 μL) to a final concentration of 2 μM of flTau aggregates and from 160 to 0.04 μM of compounds. The mixture was incubated for 30 minutes at room temperature (RT), then 40 μL of this mixture were transferred into a black 384-well plate assay (Perkin-Elmer) and mixed with 10 μL of 100 μM ThT in 250 mM glycine (both from Sigma-Aldrich) in PBS. Fluorescence (relative fluorescence units; RFU) was measured in monoplicate or duplicate on a Tecan reader (excitation: 440 nm; emission: 485 nm). Percentage of flTau disaggregation was then calculated and the half maximal effective concentration (EC50) was determined using GraphPad Prism version 5 (GraphPad Software) assuming a one-binding site fitting model.

EC50 [1]: < 10 µM
EC50 [3]: < 10 µM
SMILES: Cn1c2c(c3cc(F)ccc31)CN(c1ccc3nc(N4CCOCC4)oc3c1)CC2 [Example 15]
% Reduction of intracellular Tau aggregation [2]: ++ (++ % 50 < x < 25)
